Reference: PubChem BioAssay AID493014 (National Center for Advancing Translational Sciences (NCATS), 2011)
Out of some 340,000 compounds screened, about 170 (0.05%) were called active. The shares of active, inactive and inconclusive entries below differ from those in the screen. Calls follow the shape of the dose curve; as a rule, active = well fitted inhibition curve with a large enough effect in the signal ratio, with a control signal flat (not every such curve was filed as active); inconclusive = small, poorly fitted or top-dose-only effect, or effect the other way, or a change in a side signal; inactive = flat fitted curve, though single readings scatter; the % refers to the signal ratio. A potency beside an inconclusive call is a rough fit, not a confirmed value.

Test: qHTS Assay to Find Inhibitors of Chronic Active B-Cell Receptor Signaling;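 as to activity change, negative = inhibition: plate controls were basal doxycycline-induced cells for no effect and cells given 10 µM MG132 for full effect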
Conditions: ABC-DLBCL IkBa-CBG/CBR reporter, luminescence ratio (green luciferase fused to IkBa over red control in TMD8 lymphoma cells), 4 h; activity change, negative = inhibition: at 46.1 µM (top of the series) unless noted
Outline: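 Cell line TMD8 (human ABC DLBCL), stably expressing tet-inducible CBG68-IkBa fusion and CBR; IMDM/0.5% FBS; cpd up to 46 uM; dox induction, 4 h, 37C/5% CO2; dual luminescence; green/red ratio; MG132 control.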
Potency is read from the fitted curve at half-maximal effect.

Row | Compound | Potency | activity change, negative = inhibition
1 | CN(C)/C=C/C(=O)c1ccc2noc(-c3cccc(F)c3)c2c1 | inconclusive: 22.4 µM [falling, partial curve, poor fit] | 
2 | Cn1c(N2CCOCC2)c(/C=N/OC(=O)c2ccc(F)cc2)c2ccccc21 |  | inactive: -21.1%
3 | CC(/C=N/NC(=O)COc1ccccc1C)=N\NC(=O)COc1ccccc1C | inconclusive: 3.55 µM [falling, full curve, poor fit] | 
4 | CCn1c(=O)cc(SCC(=O)N2CCN(C3CCCCC3)CC2)c2ccccc21 |  | inconclusive: -9.69%
5 | COc1ccc(CCn2c(=O)[nH]c3cc(C(=O)NCCN4CCOCC4)ccc3c2=O)cc1OC |  | inconclusive: -1.33%
6 | CN(Cc1ccccc1F)c1nc(-c2cccs2)nc2ccccc12 |  | inconclusive: 1.38%
7 | Cc1nc(C)c(-c2csc(NCc3ccccc3)n2)s1 | inconclusive: 25.1 µM [falling, single point] | 
8 | COc1ccc(Cc2nnc(Nc3ccccc3OC)[nH]c2=O)cc1 | inconclusive: 3.55 µM [falling, partial curve, poor fit] | 
9 | CCC(=O)Nc1ccc(N2CCCCC2)cc1 |  | inactive: -14.5%
10 | COc1ccc(CNC(=S)Nc2cc(C)ccc2C)cc1 |  | inactive: -0.977%
11 | Cc1c(C2(c3c(C)n(C)n(-c4ccccc4)c3=O)C(=O)Nc3ccc(F)cc32)c(=O)n(-c2ccccc2)n1C |  | inconclusive: -1.26%
12 | O=C(NC1CCN(Cc2ccc(Cl)cc2)CC1)c1cn(-c2ccccc2)nc1-c1cccnc1 |  | inconclusive: -0.0928%
13 | COCCn1c(SCC(=O)NC2CCCCC2)nnc1-c1ccncc1 |  | inactive: 0.0062%
14 | Cc1ncc([N+](=O)[O-])n1CCOC(=O)Nc1ccc([N+](=O)[O-])cc1 |  | inconclusive: 8.62%
15 | Cc1ccc(Cc2nnc3n(-c4ccccc4)nc(C(=O)c4ccccc4)n3c2=O)cc1 | inconclusive: 6.51 µM [rising, full curve, poor fit] | 
16 | COC(=O)c1cc2sccc2n1Cc1ccc(F)cc1 |  | inconclusive: 18.4%
17 | CC(OC(=O)C1CCN(S(=O)(=O)c2ccc(Cl)cc2)CC1)C(=O)N1CCc2ccccc21 (stereo not given) |  | inconclusive: 13.1%
18 | Cc1[nH]nc2c1C1(C(=O)Nc3ccc([N+](=O)[O-])cc31)C(C#N)=C(N)O2 (stereo not given) |  | inconclusive: 5.2%
19 | O=C(CCn1nc(-c2ccc(Cl)cc2)ccc1=O)N1CCN(c2ccccn2)CC1 |  | inconclusive: -1.57%
20 | CN1CCN(c2nc(-c3cccs3)nc3ccccc23)CC1 |  | inconclusive: 16.1%

Row | Compound | Potency | activity change, negative = inhibition
21 | Cn1cccc1C(=O)OCC(=O)Nc1sccc1C#N | inconclusive: 18.4 µM [falling, single point] | 
22 | N#Cc1ccc(OCC(=O)NCC2COc3ccccc3O2)cc1 (stereo not given) |  | inactive: -0.639%
23 | Cc1nc(NC(=O)c2cc3c(C)nn(-c4ccccc4)c3s2)sc1C(=O)Nc1ccccc1 | inconclusive: 3.26 µM [falling, full curve] | 
24 | CCC(C)NCCOCCOc1ccc(Cl)c2ccccc12 (stereo not given) |  | inconclusive: 19.5%
25 | O=C(NCc1ccco1)c1cc(-c2cccnc2)nc2ccccc12 |  | inconclusive: -17.7%
26 | O=C1C=CC(=C(c2ccc(O)cc2)c2ccc(O)cc2)C=C1 | inconclusive: 5.8 µM [falling, full curve] | 
27 | COCCCn1c(SCc2ccccc2F)nc2c(sc3ccccc32)c1=O |  | inactive: 10.9%
28 | Cc1cccc(C(=O)N2CCN(CCNC(=O)C(=O)Nc3ccc(F)cc3)CC2)c1 | inconclusive: 22.4 µM [falling, partial curve] | 
29 | O=[N+]([O-])c1ccc2c(OCc3nnc(-c4ccccc4Br)o3)ncnc2c1 | inconclusive: 12.6 µM [falling, partial curve] | 
30 | Cn1cc(CN2C[C@H]3CC[C@H]2C3)c(-c2ccccc2F)n1 |  | inactive: 0.67%
31 | C/C(=N\NC(=O)c1cccc(Cl)c1)C1C(=O)c2ccccc2C1=O | inconclusive: 6.51 µM [falling, partial curve] | 
32 | O=C(CC1S/C(=N/N=C2CCCCCC2)NC1=O)Nc1ccccc1C(F)(F)F (stereo not given) |  | inactive: 4.68%
33 | Cc1ccc(C)c(NS(=O)(=O)c2ccc(-c3cnc(C4CC4)o3)cc2)c1 | inconclusive: 12.6 µM [falling, partial curve] | 
34 | CC(C)Cn1c(SCC(=O)N2CCN(S(=O)(=O)c3ccccc3)CC2)nc2ccccc21 |  | inconclusive: -0.139%
35 | COc1cccc2cc(C(=O)C3=C(O)C(=O)N(CCN4CCOCC4)C3c3ccc(C(C)(C)C)cc3)oc12 (stereo not given) |  | inconclusive: -5.43%
36 | Cc1cccc(N2CCN(C(=O)c3ccc4ncsc4c3)CC2)c1C | inconclusive: 13 µM [falling, partial curve, poor fit] | 
37 | CCCCn1c(SCC(=O)NCCOC)nc2ccc(N3CCOCC3)cc2c1=O |  | inconclusive: 0.721%
38 | NC(=S)N/N=C/c1ccccc1 |  | inactive: 0.432%
39 | CCOC(=O)Cn1c(=O)c2c(nc(N3CCCCC3)n2Cc2ccccc2)n(C)c1=O |  | inconclusive: 3.93%
40 | O=C(CSc1nnc(-c2cccc(F)c2)o1)Nc1nncs1 | inconclusive: 22.4 µM [falling, single point] | 

Filtered by structure, the compounds so far containing a furan ring, fused or not.
Row | Compound | Potency | activity change, negative = inhibition
25 | O=C(NCc1ccco1)c1cc(-c2cccnc2)nc2ccccc12 |  | inconclusive: -17.7%
35 | COc1cccc2cc(C(=O)C3=C(O)C(=O)N(CCN4CCOCC4)C3c3ccc(C(C)(C)C)cc3)oc12 (stereo not given) |  | inconclusive: -5.43%
